Measured values: patent US20110135755A1, “Combination therapies for treating neoplastic disease” (priority 2009, published 2011)

Columns and labels:
Assay type in all cases: in vivo
Conditions in all cases: single treatment, compared to control
[1] = Element concentrations in plasma of treated rats
[2] = Element concentrations in kidney samples of treated rats
Description: Liver and kidney samples were subsequently examined to see if CV 247 protected the rats from the accumulation of platinum and platinum free radicals, and what kind of metal ion concentration changes occur after treatment.

[3] = Element concentrations in liver samples of treated rats

In the case of `N.N.[Cl][Pt][Cl]` [Cisplatin, cis-diamminedichloroplatinum], the “change of element concentrations in plasma” value [1] was “decreased K concentration in plasma significantly; also recorded: increased B, Co, Cr, Fe, Mg, Mn, Ni and Sb concentrations; also recorded: presence of Pb in plasma could also be seen”, the “change of element concentrations in the kidney” value [2] was “decreased the Cu, Mg, Mn, Mo, P and Zn concentrations in the kidney significantly; also recorded: increased the Pb concentration; also recorded: concentration of Pt and Sb become measurable” and the “change of element concentrations in liver” value [3] was “increased the Fe concentration in liver significantly; also recorded: Pt appeared in the organ”.

Entries after “also recorded” stand apart in the source; their conditions may differ.
